# In PubChem BioAssay AID504847 (National Center for Advancing Translational Sciences (NCATS), 2011):
# The chains behind the UniProt entries cited, without tags or fusion partners.
# UniProt P11473, whole entry, looked up: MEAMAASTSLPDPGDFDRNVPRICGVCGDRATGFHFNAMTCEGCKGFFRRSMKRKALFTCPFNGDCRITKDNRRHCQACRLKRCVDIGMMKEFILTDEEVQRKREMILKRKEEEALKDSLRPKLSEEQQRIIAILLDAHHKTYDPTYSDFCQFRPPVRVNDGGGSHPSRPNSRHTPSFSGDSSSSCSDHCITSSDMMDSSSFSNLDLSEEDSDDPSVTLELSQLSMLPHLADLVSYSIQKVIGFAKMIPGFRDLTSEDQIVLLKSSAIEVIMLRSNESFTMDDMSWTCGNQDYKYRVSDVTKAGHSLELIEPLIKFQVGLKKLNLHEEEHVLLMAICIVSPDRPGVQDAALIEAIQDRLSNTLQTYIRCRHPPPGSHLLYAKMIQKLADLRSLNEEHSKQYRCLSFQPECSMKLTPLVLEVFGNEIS
# Screen size: about 400,000 compounds; about 3,700 (0.93%) were called active. Inconclusive means that the source gave no clear call. Such entries were picked first, then a sample of the others. Calls follow the shape of the dose curve; as a rule, active = well fitted inhibition curve with a large enough effect; inconclusive = small, poorly fitted or top-dose-only effect, or another doubt; inactive = no such curve, though single readings can be large or run the other way. A potency beside an inconclusive call is a rough fit, not a confirmed value.
# Biological target: Vitamin D3 receptor (Homo sapiens) (UniProt P11473)
# Test: Inhibitors of the vitamin D receptor (VDR): qHTS
# Settings: VDR-SRC2-3 peptide fluorescence polarization, 2 h; max response, negative = inhibition: active compounds read low
# Procedure, shortened: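 Reagent solutions, kept cold and dark, are dispensed first; compounds are then pinned in at 23 nl, plates briefly spun, and incubated 2 h at ambient temperature. Inhibition of VDR–SRC2-3 peptide binding is read by fluorescence polarization.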
# % is scaled to controls: 0 for no effect and ±100 for the full control effect; potency is read from the fitted curve at half-maximal effect.
Structure (SMILES),Potency,"max response, negative = inhibition"
CC(=O)c1sc(NC(=O)CSCc2c(C)noc2C)nc1-c1ccccc1,"inconclusive: 79.4 µM [inhibitor, single point]",
CC(OC(=O)CNC(=O)c1ccc(Cl)c([N+](=O)[O-])c1)C(=O)NCc1ccco1 (stereo not drawn),"inconclusive: 5.01 µM [inhibitor, partial curve, poor fit]",
Cc1cc(C)n(Cc2ccc(Cl)cc2Cl)c(=O)c1S(=O)(=O)c1ccccc1,,inactive: 0.733%
CCOc1ccc(C2NC(=O)C(C#N)=C(S)N2c2ccc(C)cc2)cc1OC (stereo not drawn),active: 17.8 µM,
COc1ccc2nc3oc(C(=O)NCc4ccccc4OC)cc3cc2c1,"inconclusive: 100 µM [inhibitor, partial curve, poor fit]",
Cc1cccc(-c2nc(S(=O)(=O)c3ccc(F)cc3)c(NCCCN3CCOCC3)o2)c1,,inactive: -14.7%
CCC(=O)NC(Nc1sc2c(c1C(=O)OC)CCC2)C(Cl)(Cl)Cl (stereo not drawn),,inactive: -17.9%
CC(=O)c1c(C)[nH]c(C(=O)OCC(=O)N2CC(C)OC(C)C2)c1C (stereo not drawn),"inconclusive: 56.2 µM [inhibitor, partial curve, poor fit]",
CCCCC[C@H]1CN(C2CCCCC2)C(=O)[C@@H]1CC(=O)NCc1ccc(OC)cc1,"inconclusive: 89.1 µM [inhibitor, partial curve]",
COc1cc(-c2nc3c4ccccc4nc(=S)n3[nH]2)cc(OC)c1OC,,inactive: 14%
NC(CSC1(c2cccc3ccccc23)c2ccccc2-c2ccccc21)C(=O)O (stereo not drawn),"inconclusive: 79.4 µM [inhibitor, partial curve]",
COc1ccc(NC(=O)C2CC2)cc1S(=O)(=O)N1CCOCC1,"inconclusive: 89.1 µM [inhibitor, single point]",
CCOC(=O)c1sc2nc(-c3ccco3)c3c(c2c1N)CC(C)(C)OC3,"inconclusive: 89.1 µM [inhibitor, single point]",
O=C(CSc1cn(CC(=O)N2CCCCC2)c2ccccc12)NCC1CCCO1 (stereo not drawn),"inconclusive: 70.8 µM [inhibitor, single point]",
O=C(NN=C1CCCC1)c1[nH]c2ccc(Cl)cc2c1-c1ccccc1,"inconclusive: 100 µM [inhibitor, single point]",
O=C(/C=C/c1ccc(-c2ccccc2[N+](=O)[O-])o1)c1ccco1,"inconclusive: 50.1 µM [inhibitor, partial curve, poor fit]",
O=C(COC(=O)/C=C/c1ccc(C(F)(F)F)cc1)NCc1ccco1,"inconclusive: 35.5 µM [inhibitor, partial curve, poor fit]",
O=C1c2ccccc2-c2n[nH]c3cccc1c23,"inconclusive: 50.1 µM [inhibitor, partial curve]",
Nc1c(N(Cc2ccccc2)C(=O)COc2cccc(Cl)c2)c(=O)[nH]c(=O)n1Cc1ccccc1,"inconclusive: 79.4 µM [inhibitor, single point]",
CN(C)c1ccc(NC(=O)COC(=O)Cn2nnc3ccccc32)cc1,"inconclusive: 89.1 µM [inhibitor, single point]",
CC[C@]12c3[nH]c4cc(-c5ccco5)ccc4c3CCN1C(=O)[C@@H](CC(=O)NCc1ccco1)C[C@@H]2C(=O)N1CCN(C(=O)C2CC2)CC1,"inconclusive: 100 µM [inhibitor, partial curve, poor fit]",

Structure (SMILES),Potency,"max response, negative = inhibition"
COc1ccc(CNC(=O)CN2C(=O)C(c3ccccc3)Oc3cccnc32)cc1 (stereo not drawn),,inactive: 9.83%
O=C(C1CC(=O)N(c2ccc3c(c2)OCCO3)C1)N1CCN(S(=O)(=O)c2cccc(F)c2)CC1 (stereo not drawn),"inconclusive: 89.1 µM [inhibitor, single point]",
CCCCCC(=O)N(O)C1CC(=O)N(c2ccccc2)C1=O (stereo not drawn),active: 20 µM,
O=C1/C(=C\c2ccco2)CCC/C1=C\c1ccco1,"inconclusive: 56.2 µM [inhibitor, partial curve, poor fit]",
CCC(C)NC(=O)CCn1c(=O)c2cccn2c2ccc(F)cc21 (stereo not drawn),"inconclusive: 79.4 µM [inhibitor, single point]",
COc1cc(C(=O)Oc2c(Sc3ccc(C)cc3)c(C)nn2-c2ccccc2)cc(OC)c1OC,"inconclusive: 70.8 µM [inhibitor, partial curve, poor fit]",
CCn1c(/C=C/Nc2ccccc2)[n+](CC)c2ccc(Cl)cc21,,inactive: 7.35%
O=C(Nc1ccc(N2CCCCC2)cc1)c1ccccc1,,inactive: -1.12%
CCOc1ccccc1NC(=O)c1c(NC(=O)c2ccccc2C)sc2c1CCC(C)C2 (stereo not drawn),"inconclusive: 63.1 µM [inhibitor, partial curve, poor fit]",
COc1ccc(/C=N/Nc2nncn2N)cc1Br,active: 22.4 µM,
Cc1cc(C)n2cc(CSc3nnnn3-c3ccccc3C)nc2n1,"inconclusive: 17.8 µM [inhibitor, partial curve]",
COC(=O)COc1cccc(NC(=O)c2ccc(Cl)cc2)c1,"inconclusive: 89.1 µM [inhibitor, single point]",
CCCCn1c(NS(=O)(=O)c2ccc(C)cc2)c(S(=O)(=O)c2ccccc2)c2nc3ccccc3nc21,"inconclusive: 89.1 µM [inhibitor, partial curve, poor fit]",
Nc1cccc2c(O)cc(S(=O)(=O)O)cc12,active: 12.6 µM,
CCC(=O)N1CCc2cc(Br)cc(S(=O)(=O)N3CCCC(C(=O)Nc4ccc(OC)c(Cl)c4)C3)c21 (stereo not drawn),,inactive: -12.1%
CC(=O)N(c1ccc2oc(=O)sc2c1)S(=O)(=O)c1ccc(C(=O)O)cc1,active: 79.4 µM,
COc1ccc(/C=C(\C#N)C(=O)Nc2cc(S(=O)(=O)N3CCOCC3)ccc2N2CCCC2)cc1,active: 35.5 µM,
Cc1ccc(S(=O)(=O)Nc2ccnc3ccccc23)cc1,"inconclusive: 56.2 µM [inhibitor, partial curve, poor fit]",
O=S(=O)(NC(=NCc1ccccc1)c1ccc(F)cc1)c1ccc(Cl)cc1,"inconclusive: 28.2 µM [inhibitor, partial curve, poor fit]",
Cc1cccc(-n2c(-c3ccncc3)n[nH]c2=S)c1C,"inconclusive: 100 µM [inhibitor, single point]",
Cc1oc(-c2cccc(F)c2)nc1CN1CCCN(C(=O)c2ccco2)CC1,"inconclusive: 89.1 µM [inhibitor, single point]",

Structure (SMILES),Potency,"max response, negative = inhibition"
COc1ccc2cc(-c3[nH]ncc3CN3C[C@@H]4CCC[C@H]3C4)ccc2c1,"inconclusive: 100 µM [inhibitor, single point]",
Oc1ccc(C(O)CNCCCCCCNCC(O)c2ccc(O)c(O)c2)cc1O (stereo not drawn),"inconclusive: 35.5 µM [inhibitor, full curve]",
COc1ccc(Cl)cc1N/C(N)=N/c1nc(C)cc(=O)[nH]1,"inconclusive: 3.16 µM [inhibitor, partial curve, poor fit]",
COc1cc(C(=O)Nc2nnc(SC)s2)c([N+](=O)[O-])cc1OC,,inactive: -4.07%
COc1cccc(C(=O)NCCSCc2c(F)cccc2Cl)c1,"inconclusive: 79.4 µM [inhibitor, single point]",
CNC(=S)N1CCC(NC(=O)C23CC4CC(CC(C4)C2)C3)CC1,"inconclusive: 35.5 µM [inhibitor, partial curve, poor fit]",
O=C(c1ccccc1)[C@@H]1[C@@H]2C(=O)N(c3ccc(F)cc3)C(=O)[C@@H]2C2CCCN21 (stereo partly drawn),"inconclusive: 89.1 µM [inhibitor, single point]",
O=S(=O)([O-])CCC[N+]1(CC#Cc2ccccc2)CCCCC1,"inconclusive: 17.8 µM [inhibitor, partial curve, poor fit]",
Cc1[nH]c2ccccc2c1CCN(Cc1cccs1)C(=S)Nc1ccccc1,"inconclusive: 89.1 µM [inhibitor, partial curve, poor fit]",
Cc1cc(Cl)ccc1OCC(=O)N(Cc1ccco1)c1c(N)n(Cc2ccccc2)c(=O)[nH]c1=O,"inconclusive: 89.1 µM [inhibitor, single point]",
CCc1ccccc1Nc1cc(C(=O)NC2CCC(C)CC2)c2ccccc2n1 (stereo not drawn),,inactive: -6.31%
COc1ccc(CNC(=O)c2cc(-c3ccc(C)c(C)c3)n[nH]2)cc1,,inactive: 4.11%
Cc1c([N+](=O)[O-])nnn1-c1cc(Cl)cc(Cl)c1,,inactive: 0.111%
CC1=NN(c2ccc(Br)cc2)C(=O)/C1=C/c1cccs1,"inconclusive: 3.16 µM [inhibitor, full curve, poor fit]",
Cc1ccc(C2CC(c3cccc(C)c3)n3ncnc3N2)cc1 (stereo not drawn),"inconclusive: 5.01 µM [inhibitor, full curve, poor fit]",
NC(=O)CSc1nnc(-c2cccc(S(=O)(=O)N3CCOCC3)c2)n1C1CCCCCC1,"inconclusive: 7.08 µM [inhibitor, single point]",
CN(C)CC1CCC/C(=C\c2ccc(OC(=O)/C=C/c3ccccc3)cc2)C1=O (stereo not drawn),active: 79.4 µM,
CCOC(=O)c1c(NC(=O)COc2cccc(C(F)(F)F)c2)sc2c1CCCCC2,"inconclusive: 100 µM [inhibitor, single point]",
O=C(NCc1cccnc1)C(=O)N/N=C/c1ccccc1[N+](=O)[O-],"inconclusive: 89.1 µM [inhibitor, partial curve, poor fit]",
Cc1ccc2nc(N3C(=O)C(O)=C(C(=O)c4ccc(C)o4)C3c3ccco3)sc2c1 (stereo not drawn),"inconclusive: 100 µM [inhibitor, single point]",
CCOC(=O)C(NS(=O)(=O)c1ccccc1)(C(F)(F)F)P(=O)(OCC(C)C)OCC(C)C (stereo not drawn),"inconclusive: 56.2 µM [inhibitor, partial curve, poor fit]",

# Five neighbouring records from above, for reference:
Structure (SMILES),Potency,"max response, negative = inhibition"
O=C(c1ccccc1)[C@@H]1[C@@H]2C(=O)N(c3ccc(F)cc3)C(=O)[C@@H]2C2CCCN21 (stereo partly drawn),"inconclusive: 89.1 µM [inhibitor, single point]",
O=S(=O)([O-])CCC[N+]1(CC#Cc2ccccc2)CCCCC1,"inconclusive: 17.8 µM [inhibitor, partial curve, poor fit]",
Cc1[nH]c2ccccc2c1CCN(Cc1cccs1)C(=S)Nc1ccccc1,"inconclusive: 89.1 µM [inhibitor, partial curve, poor fit]",
Cc1cc(Cl)ccc1OCC(=O)N(Cc1ccco1)c1c(N)n(Cc2ccccc2)c(=O)[nH]c1=O,"inconclusive: 89.1 µM [inhibitor, single point]",
CCc1ccccc1Nc1cc(C(=O)NC2CCC(C)CC2)c2ccccc2n1 (stereo not drawn),,inactive: -6.31%
